At least one compound was matched to its structure with a doubt left.
Assay: Rapamycin elution test from titania-coated substrates in 60% PBS / 40% methanol
Assay type: physicochemical
Details: for duration of release of the drug: PBS/methanol solution, FIG. 3

## CO[C@H]1C[C@@H]2CC[C@@H](C)[C@@](O)(O2)C(=O)C(=O)N2CCCC[C@H]2C(=O)O[C@H]([C@H](C)C[C@@H]2CC[C@@H](O)[C@H](OC)C2)CC(=O)[C@H](C)/C=C(\C)[C@@H](O)[C@@H](OC)C(=O)[C@H](C)C[C@H](C)/C=C/C=C/C=C/1C [rapamycin]
25 nm thick ALD/MPD titania top layer over rapamycin on stainless steel
  duration of release of the drug: about 6 hr
50 nm thick ALD/MPD titania top layer over rapamycin on stainless steel
  duration of release of the drug: about 6 hr
75 nm thick ALD/MPD titania top layer over rapamycin on stainless steel
  duration of release of the drug: about 12 hr
150 APD deposited titania layers
  period of release: 12 h
Cobalt chromium substrate, no titania layer
  elution when not covered with a layer of titania: elute almost immediately
control, no top coating, cobalt chromium substrate
  time to almost complete drug release: ≤ 2 h
Two rapamycin layers, each covered with titania (30 and 35 nm), cobalt chromium substrate
  time up to which release slows significantly compared with control: about 4.5 hr
Untreated surfaces (no titania), within 2 hr
  drug elution: ~100%

From patent publication US20130053938A1, “SURFACE PROTECTIVE AND RELEASE MATRICES” (METASCAPE LLC, priority 2008, published 2013)
